Data from patent publication US6020373A, “Chelate derivatives as protectors against tissue injury” (Eastern Virginia Medical School, priority 1997, dated 2000).
At least one compound was matched to its structure with a doubt left.

Test system: radiation damage of right hind leg
Assay: Radioprotection in mice: radiation damage scores of the irradiated right hind leg
Conditions: IP, limb irradiation 30-40 Gy

O=C(O)CNCC(=O)O [IDA, iminodiacetate]
effectiveness as radioprotectant: slightly effective
